Taken from: PubChem BioAssay AID602196 (INSERM, 2012)
Assay: 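Knock-downs that protect lung cancer cells from cisplatin or sensitise them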. System: human A549 lung cancer cells. Reagents: siRNA pair against human genes. Timing: 48 h transfection before cisplatin; time from cisplatin to read-out not stated. Treatment: cisplatin at a dose killing half of control-siRNA cells; exact dose and duration not given. Measured: 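Cisplatin cell death as a shift from the 50% death seen with control siRNA; siRNAs toxic or growth-blocking alone scored 0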. Reading the numbers: two-siRNA summed score (-2 to +2): higher = both siRNAs protect from cisplatin killing; -2 means both sensitise; mean protection from cisplatin (shift in death): higher = protection from cisplatin killing. Rule for the call: 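siRNAs harmful alone (LDH or WST-1) get 0; others get +1 for less and -1 for more cisplatin killing; genes are active when the two siRNAs give the same sign, summing to ±2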. Meaning of the calls: active = both siRNAs shift cisplatin killing the same way; inactive = no consistent shift, or siRNA harmful alone.
This is an unselected part of about 23,000 deposited reagents. 455 of them (2%) were called active. 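Active includes both protection and sensitisation; some change values fall well beyond the stated -50 to +50 range.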 Further read-outs or replicates are left out here. The record does not give: the amount of reagent.

Knock-down of CUL5 gave: two-siRNA summed score (-2 to +2) = -1; mean protection from cisplatin (shift in death) (%) = -13.6; inactive.
P3H2 showed two-siRNA summed score (-2 to +2) = 1; mean protection from cisplatin (shift in death) (%) = 11.5; inactive.
Depletion of LOC440946 resulted in: two-siRNA summed score (-2 to +2) = 0; mean protection from cisplatin (shift in death) (%) = -2.7; inactive.
Against AUH the deposit lists two-siRNA summed score (-2 to +2) = 0; mean protection from cisplatin (shift in death) (%) = 10.3; inactive.
Against ABHD11, the entry reads two-siRNA summed score (-2 to +2) = 0; mean protection from cisplatin (shift in death) (%) = 19.5; inactive.
Silencing of PRAME resulted in: two-siRNA summed score (-2 to +2) = 0; mean protection from cisplatin (shift in death) (%) = 2.3; inactive.
Knock-down of GALK1 gave: two-siRNA summed score (-2 to +2) = -1; mean protection from cisplatin (shift in death) (%) = 4.9; inactive.
Against LOC196913, the entry reads two-siRNA summed score (-2 to +2) = 0; mean protection from cisplatin (shift in death) (%) = 8.9; inactive.
With knock-down of NKRF, the record shows two-siRNA summed score (-2 to +2) = 0; mean protection from cisplatin (shift in death) (%) = 3.5; inactive.
With knock-down of LOC439943 the results were two-siRNA summed score (-2 to +2) = 0; mean protection from cisplatin (shift in death) (%) = 8; inactive.
After knock-down of SANBR the results were two-siRNA summed score (-2 to +2) = 0; mean protection from cisplatin (shift in death) (%) = 1.8; inactive.
ZMAT1 showed two-siRNA summed score (-2 to +2) = 0; mean protection from cisplatin (shift in death) (%) = 3.5; inactive.
Silencing of KCNJ2 came out at: two-siRNA summed score (-2 to +2) = -1; mean protection from cisplatin (shift in death) (%) = -22.3; inactive.
Depletion of LOC439983 resulted in: two-siRNA summed score (-2 to +2) = 0; mean protection from cisplatin (shift in death) (%) = 3.5; inactive.
LOC123103 gave two-siRNA summed score (-2 to +2) = 0; mean protection from cisplatin (shift in death) (%) = -10; inactive.
Silencing of KRTAP3-3 came out at: two-siRNA summed score (-2 to +2) = 0; mean protection from cisplatin (shift in death) (%) = 6.2; inactive.
For MYF6, the values are two-siRNA summed score (-2 to +2) = -1; mean protection from cisplatin (shift in death) (%) = -24.9; inactive.
Silencing of F3 resulted in: two-siRNA summed score (-2 to +2) = -1; mean protection from cisplatin (shift in death) (%) = -2.2; inactive.
Against MED7 the deposit lists two-siRNA summed score (-2 to +2) = 0; mean protection from cisplatin (shift in death) (%) = 5.4; inactive.
TRHDE-AS1 scored two-siRNA summed score (-2 to +2) = 1; mean protection from cisplatin (shift in death) (%) = 9.9; inactive.
GSTA1 scored two-siRNA summed score (-2 to +2) = -1; mean protection from cisplatin (shift in death) (%) = -14; inactive.
EPN1 showed two-siRNA summed score (-2 to +2) = 0; mean protection from cisplatin (shift in death) (%) = 11.5; inactive.
After knock-down of KIF1C the results were two-siRNA summed score (-2 to +2) = -2; mean protection from cisplatin (shift in death) (%) = -16; active.
With knock-down of VILL, the screen gave two-siRNA summed score (-2 to +2) = 0; mean protection from cisplatin (shift in death) (%) = 1.1; inactive.
CLEC10A gave two-siRNA summed score (-2 to +2) = 0; mean protection from cisplatin (shift in death) (%) = 4; inactive.
Knock-down of DKFZp686J0529 came out at: two-siRNA summed score (-2 to +2) = 0; mean protection from cisplatin (shift in death) (%) = 14.5; inactive.
HOXC11 showed two-siRNA summed score (-2 to +2) = 0; mean protection from cisplatin (shift in death) (%) = 0; inactive.
With knock-down of LOC401393, the screen gave two-siRNA summed score (-2 to +2) = 0; mean protection from cisplatin (shift in death) (%) = 9.7; inactive.
RPL6 showed two-siRNA summed score (-2 to +2) = 0; mean protection from cisplatin (shift in death) (%) = 21.4; inactive.
Knock-down of HNRNPC resulted in: two-siRNA summed score (-2 to +2) = 0; mean protection from cisplatin (shift in death) (%) = 2; inactive.
AP3B1 gave two-siRNA summed score (-2 to +2) = 0; mean protection from cisplatin (shift in death) (%) = -2.9; inactive.
After knock-down of CIDEC, the screen gave two-siRNA summed score (-2 to +2) = 0; mean protection from cisplatin (shift in death) (%) = -11.8; inactive.
PRP4K gave two-siRNA summed score (-2 to +2) = 0; mean protection from cisplatin (shift in death) (%) = -1.1; inactive.
Knock-down of ZNF408 gave: two-siRNA summed score (-2 to +2) = 0; mean protection from cisplatin (shift in death) (%) = 0.5; inactive.
Silencing of KCNA10 came out at: two-siRNA summed score (-2 to +2) = -1; mean protection from cisplatin (shift in death) (%) = -11.3; inactive.
PLSCR5 gave two-siRNA summed score (-2 to +2) = 0; mean protection from cisplatin (shift in death) (%) = -8.9; inactive.
Silencing of ALG6 came out at: two-siRNA summed score (-2 to +2) = 1; mean protection from cisplatin (shift in death) (%) = 19.2; inactive.
IFT122 scored two-siRNA summed score (-2 to +2) = 0; mean protection from cisplatin (shift in death) (%) = 12.1; inactive.
KIF26A showed two-siRNA summed score (-2 to +2) = 0; mean protection from cisplatin (shift in death) (%) = 5.5; inactive.
SFT2D1 gave two-siRNA summed score (-2 to +2) = -1; mean protection from cisplatin (shift in death) (%) = -8; inactive.
